Source: patent publication US20250188118A1 (AMGEN INC., priority 2023, published 2025)
Square brackets hold non-standard residues; d marks the D form. * marks the point of attachment. His(Trt) = N[C@@H](Cc1cn(C(c2ccccc2)(c2ccccc2)c2ccccc2)cn1)C(=O)O; Boc = CC(C)(C)OC(=O)*; Aib = CC(C)(N)C(=O)O; OtBu = CC(C)(C)O*

Test: peptide synthesis
Settings: late stage modification step

Substance: Boc-[His(Trt)][Aib]E(OtBu)G-OH
- step yield: 58%
